Results published in PubChem BioAssay AID1487 (National Center for Advancing Translational Sciences (NCATS), 2009).
The other results are listed elsewhere or left out. The main result of the screen is listed elsewhere. These columns were measured beside it and carry no call. Most of these compounds were active or inconclusive in the main read-out, so they are no random draw. Potencies come from curve fits of mixed quality, noted in brackets.

Assay: qHTS Assay for Modulators of Lamin A Splicing
Conditions: HeLa LMNA splicing GFP/RFP minigene ratio, 48 h
Summary of the method: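 S3 HeLa stable clones carrying a lamin A-EGFP splicing minigene plus DsRed2 were seeded at 600 cells/well in Opti-MEM with 2% FBS, pin-dosed and incubated 48 h at 37°C. Acumen cytometry (488 nm) gave the GFP/RFP total-intensity ratio.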

[1] = measured here: GFP splicing reporter channel
[2] = measured here: RFP viability control channel

Row | SMILES | AC50 [1] | AC50 [2]
1 | Cc1ccc2cc(CN(Cc3ccco3)S(=O)(=O)c3c(C)ccc4nsnc34)c(=O)[nH]c2c1 | 5.62 µM [rising, partial curve] | 14.1 µM [rising, single point]
2 | Cc1ccc(CNC(=O)CSc2nc3ccsc3c(=O)n2Cc2ccc(C(=O)O)cc2)cc1 |  | 0.282 µM [falling, partial curve, poor fit]
3 | CN(c1ccc(OCC(=O)OCC(=O)Nc2cccc([N+](=O)[O-])c2)cc1)S(=O)(=O)c1ccc(F)cc1 | 22.4 µM [rising, partial curve, poor fit] | 
4 | Cc1cccc2sc(NC(=O)C3c4ccccc4Oc4ccccc43)nc12 | 10 µM [falling, partial curve, poor fit] | 
5 | Cc1ccc(Cl)cc1NC(=O)CN1C(=O)C(C)(C)c2cc(S(=O)(=O)N3CCCCC3)ccc21 | 0.0891 µM [falling, full curve, poor fit] | 0.794 µM [falling, full curve, poor fit]
6 | Cc1ccc(Cn2c(=S)[nH]c3ccc(N4CCOCC4)cc3c2=O)o1 | 22.4 µM [falling, single point] | 17.8 µM [falling, partial curve]
7 | COc1ccc(N2C(=S)N=C(Nc3cccc(C)c3)C23CCCCC3)cc1 | 3.98 µM [rising, single point] | 4.47 µM [rising, full curve, poor fit]
8 | C/C(=N\NC(=O)CSCc1ccc([N+](=O)[O-])cc1)c1ccccc1O |  | 31.6 µM [rising, single point]
9 | CCOC(=O)c1ccc(OC(=O)c2cn(-c3cccc(OC)c3)c(=O)c3ccccc23)cc1 | 4.47 µM [rising, full curve, poor fit] | 
10 | O=C(O)c1ccc(NC2=C/C(=N/S(=O)(=O)c3ccccc3)c3ccccc3C2=O)cc1 | 14.1 µM [falling, single point] | 11.2 µM [falling, partial curve, poor fit]
11 | CCOc1ccc(N2CC(C(=O)NCc3nnnn3-c3ccc(C)c(C)c3)CC2=O)cc1 (stereo not given) | 0.398 µM [rising, partial curve, poor fit] | 
12 | CC(=O)c1ccc(N2CCN(C(=O)CCS(=O)(=O)c3ccc4c(c3)oc(=O)n4C)CC2)cc1 | 25.1 µM [falling, single point] | 17.8 µM [falling, single point]
13 | COc1ccc2c(c1)CCc1c(C(=O)N3CCc4ccccc4C3)noc1-2 |  | 20 µM [rising, single point]
14 | COc1ccc(OC)c(C(=O)c2coc3ccc(OC(C)=O)cc23)c1 | 35.5 µM [rising, single point] | 35.5 µM [rising, single point]
15 | Cc1ccccc1Oc1cc(NC(=O)CCCn2nc(C)c([N+](=O)[O-])c2C)cc([N+](=O)[O-])c1 |  | 35.5 µM [rising, single point]
16 | Cc1cc(=O)n(CC(=O)N2CCN(c3ccc(F)cc3)CC2)c2c1c(C)nn2C |  | 0.0112 µM [falling, full curve, poor fit]
17 | Cn1c(=O)c2c(ncn2Cc2ccc(Cl)c(Cl)c2)n(C)c1=O | 12.6 µM [rising, partial curve] | 8.91 µM [rising, partial curve]
18 | O=C(CN1C(=O)CCC1=O)Nc1nc(-c2ccc(Cl)s2)cs1 |  | 15.8 µM [rising, single point]
19 | Cc1ccc(/C=C/c2nc3ccccc3[nH]2)o1 | 0.00316 µM [falling, full curve, poor fit] | 0.01 µM [falling, full curve, poor fit]
20 | C=CCOc1c(CNn2cn[nH]c2=S)cccc1OC |  | 0.447 µM [falling, full curve]
21 | Cc1ccc(C(=O)c2ccc(N3CCOCC3)c(F)c2)cc1 |  | 20 µM [rising, single point]
22 | Nc1ccc(C(=O)O)c(O)c1 | 1.78 µM [falling, partial curve, poor fit] | 5.62 µM [rising, single point]
23 | CCN(Cc1ccccc1)S(=O)(=O)c1ccc(C(=O)N2CCN(c3nc4ccccc4s3)CC2)cc1 |  | 8.91 µM [rising, partial curve]
24 | CN1CCN(CCC(=O)Nc2ccc(F)c(F)c2)CC1 |  | 12.6 µM [falling, single point]
25 | CCc1ccc(NC(=O)C(=O)NCC(c2cccnc2)N2CCOCC2)cc1 (stereo not given) | 35.5 µM [falling, single point] | 35.5 µM [falling, single point]
26 | O=C(c1cccc(F)c1)N1CCN(C(=O)c2cc(-c3ccc(Cl)cc3Cl)on2)CC1 |  | 35.5 µM [rising, single point]
27 | O=C(Nc1cccnc1)c1cc2nc(C3CC3)cc(C(F)(F)F)n2n1 |  | 2 µM [falling, single point]

Row | SMILES | AC50 [1] | AC50 [2]
28 | CC1CCc2sc(C(=O)NCc3ccc(F)cc3)cc2C1 (stereo not given) |  | 12.6 µM [rising, single point]
29 | Cc1nn(Cc2ccccc2Cl)c2sc(C(=O)NCCCn3ccnc3)cc12 | 3.16 µM [rising, partial curve, poor fit] | 12.6 µM [rising, single point]
30 | Nn1c(-c2ccccc2Cl)nnc1-c1ccccc1Cl |  | 35.5 µM [rising, single point]
31 | Cc1ccccc1CSc1nc2cccnc2n1Cc1ccc(C(=O)NCCc2cccs2)cc1 | 25.1 µM [falling, partial curve, poor fit] | 31.6 µM [falling, partial curve]
32 | CCOC(=O)c1[nH]c2ccc(OC)cc2c1NC(=O)c1ccc(OC)c(OC)c1 |  | 7.08 µM [rising, partial curve]
33 | COc1cc(CNCc2ccccn2)ccc1OCc1ccccc1Cl |  | 25.1 µM [rising, single point]
34 | CCOc1cccc2sc(N(CCN(C)C)C(=O)c3ccc(Br)s3)nc12 | 1.58 µM [falling, full curve, poor fit] | 
35 | CCc1ncc(C(=O)c2ccc(OC)cc2)n1C |  | 22.4 µM [rising, partial curve, poor fit]
36 | S=C(NCc1cccs1)Nc1cccc(Cl)c1Cl |  | 35.5 µM [rising, single point]
37 | CSc1nsc(SCC(=O)Nc2nc3ccccc3s2)n1 | 12.6 µM [rising, single point] | 25.1 µM [rising, single point]
38 | Cc1ccc(-c2ccc(/C=N\NC(=O)c3cc4c(ccc5ccccc54)o3)o2)cc1[N+](=O)[O-] | 15.8 µM [falling, single point] | 12.6 µM [falling, partial curve]
39 | O=C(/C(=C(\[O-])c1ccccc1)[n+]1ccc2ccccc2c1)c1ccc(Cl)cc1 | 0.501 µM [rising, full curve] | 3.98 µM [rising, full curve]
40 | CCCc1cc(C(=O)Cc2ccc(C(=O)OCC)o2)c(O)cc1O | 35.5 µM [rising, single point] | 28.2 µM [rising, single point]
41 | CCOc1ccc(OCC)c(NC(=O)C2CCN(c3cnccn3)CC2)c1 | 11.2 µM [rising, partial curve] | 
42 | O=C(CN1C(=O)NC2(CCSC2)C1=O)NCc1ccccc1 (stereo not given) |  | 0.01 µM [rising, full curve, poor fit]
43 | O=C(Nc1ccc2[nH]c(=S)sc2c1)Nc1ccccc1F | 3.98 µM [falling, full curve] | 2.82 µM [falling, full curve]
44 | Cc1nc(SCC(=O)c2cc3ccccc3oc2=O)c(C#N)c(C)c1C(=O)Nc1ccccc1 | 2.82 µM [falling, full curve] | 2.82 µM [falling, full curve, poor fit]
45 | O=C(Cn1cnc2ccccc2c1=O)c1ccc2ccccc2c1 | 11.2 µM [rising, single point] | 22.4 µM [rising, single point]
46 | CN(C)S(=O)(=O)c1cccc(-c2nn(-c3ccccc3)cc2/C=C2\SC(=S)NC2=O)c1 | 8.91 µM [rising, partial curve] | 11.2 µM [rising, partial curve]
47 | N#Cc1c(NC(=O)CSc2n[nH]c(Cc3ccccc3)n2)oc(-c2ccccc2)c1-c1ccccc1 |  | 22.4 µM [rising, partial curve]
48 | COc1ccc(NC(=O)c2cccs2)c([N+](=O)[O-])c1 | 35.5 µM [rising, single point] | 
49 | O=C(Nc1ccccc1C(F)(F)F)N1CCN(c2ccc3nnc(-c4ccc(F)cc4)n3n2)CC1 |  | 31.6 µM [rising, single point]
50 | CC(C)(C)NCC(O)COc1ccccc1C(=O)CCc1ccccc1 (stereo not given) | 1.58 µM [falling, partial curve, poor fit] | 
51 | COc1cc(/C=C2/C(=O)c3cccc([N+](=O)[O-])c3C2=O)c(Br)cc1O |  | 0.0126 µM [rising, full curve, poor fit]
52 | CCOC(=O)N1CCN(C(=O)CCSCCc2ccncc2)CC1 | 14.1 µM [rising, single point] | 35.5 µM [rising, single point]
53 | N#C/C(=C/c1ccc(Sc2nc3ccccc3[nH]2)o1)c1cccc(F)c1 |  | 11.2 µM [rising, partial curve, poor fit]

Exported tab-delimited: two of the compounds above.
Row	SMILES	AC50 [1]	AC50 [2]
25	CCc1ccc(NC(=O)C(=O)NCC(c2cccnc2)N2CCOCC2)cc1 (stereo not given)	35.5 µM [falling, single point]	35.5 µM [falling, single point]
26	O=C(c1cccc(F)c1)N1CCN(C(=O)c2cc(-c3ccc(Cl)cc3Cl)on2)CC1		35.5 µM [rising, single point]
